{"source": "paper doi:10.1101/2022.09.12.507586", "binders": {"B1": {"name": "Cys-FtsZ (Cys-tagged FtsZ) (protein, UniProt Q1D0T7 1-405)", "chain": "MDQFDQNKQAAKIRVVGAGGAGCNAVNTMILSKLDRVDFIAANTDVQALAASKAPTRLQLGQTLTKGLGAGANPEMGREAALESRDQIAAVLEGADMVFVTAGMGGGTGTGAAPIIADIAKSLGCLTVGVVTKPFLFEGNKRRKQAEQGIVELKAAVDTLITIPNQRLLSLSNEPMPLLETFKRADEVLLNAVQGISDLIQYHGYINVDFADVKTIMSDKGIALMGTGNSTGDKRALIAMQQAIASPLLEDVTIDGATGLLINITGGRDMTLQEVNEALTLVHDAADSEAEIIFGSLIDENISDEVKITIIATGFVHRDAPKVRTVAPVVQVPLSRPAPSVLANAREEVASLVPTKGSGSRPLTVESAKSVSARTAVVKDAPLPLDEDQFDIPTFLRRQGQTELP"}, "B2": {"name": "untagged FtsZ (protein, UniProt Q1D0T7 1-405)", "chain": "MDQFDQNKQAAKIRVVGAGGAGCNAVNTMILSKLDRVDFIAANTDVQALAASKAPTRLQLGQTLTKGLGAGANPEMGREAALESRDQIAAVLEGADMVFVTAGMGGGTGTGAAPIIADIAKSLGCLTVGVVTKPFLFEGNKRRKQAEQGIVELKAAVDTLITIPNQRLLSLSNEPMPLLETFKRADEVLLNAVQGISDLIQYHGYINVDFADVKTIMSDKGIALMGTGNSTGDKRALIAMQQAIASPLLEDVTIDGATGLLINITGGRDMTLQEVNEALTLVHDAADSEAEIIFGSLIDENISDEVKITIIATGFVHRDAPKVRTVAPVVQVPLSRPAPSVLANAREEVASLVPTKGSGSRPLTVESAKSVSARTAVVKDAPLPLDEDQFDIPTFLRRQGQTELP"}}, "key": {"[1]": {"molecular_target": "Cys-FtsZ (Cys-tagged FtsZ) (Myxococcus xanthus) (UniProt Q1D0T7)", "test": "high-speed centrifugation"}, "[2]": {"molecular_target": "untagged FtsZ (Myxococcus xanthus) (UniProt Q1D0T7)", "test": "high-speed centrifugation"}}, "note": "No constants are given. Whether binding was seen depends on the method and setting. Some entries that bind do so weakly or less than the wild type. Where a sequence is shown, tags or fusion partners need not be part of it.", "data": [{"binder": "B1", "values": [{"measurement": "binding", "setting": "[1]", "result": "binds"}]}, {"binder": "B2", "values": [{"measurement": "binding", "setting": "[2]", "result": "binds"}]}]}
